Article PMC11901765, “Discovery of N-(2-Acetamidobenzo[d]thiazol-6-yl)-2-phenoxyacetamide Derivatives as Novel Potential BCR-ABL1 Inhibitors Through Structure-Based Virtual Screening” (Molecules, 2025)

Legend:
Format in all cases: cell-based
[1] = system: MV411; assay: CCK-8 viability assay, MV411 cells; settings: Homo sapiens, MV4-11; Table 3; mean ± SD
Description: (§1) Cell viability was assessed using the Cell Counting Kit-8 (CCK-8) assay. Cells were seeded in 96-well plates at a density of 10,000 cells per well in RPMI 1640 medium. Test compounds were prepared by serially diluting stock solutions 3-fold in DMSO to generate an eight-point concentration gradient (100 μM to 0.045 μM), followed by addition to the cultured cells. After 72 h of incubation, 10 μL of CCK-8 reagent was added to each well, and the plates were further incubated for 2–4 h. Absorbance was measured at 450 nm using a microplate reader. Dose-response curves were generated and analyzed using GraphPad Prism 8 (version 8.4.3.686).

[2] = system: HL60; assay: CCK-8 viability assay, HL60 cells; settings: Homo sapiens, HL-60; Table 3; mean ± SD
Description: as §1

[3] = system: parental Ba/F3 cells; assay: CCK-8 viability assay, parental Ba/F3 cells; settings: Mus musculus, BaF3, mean ± SD
Description: as §1

IC50 [1]: 65.7 ± 6.5 µM
IC50 [2]: 29.1 ± 3.3 µM
SMILES: Cc1ccc(NC(=O)c2ccc(CN3CCN(C)CC3)cc2)cc1Nc1nccc(-c2cccnc2)n1 [Imatinib, imatinib, reference compound]
GI50 ([3]; CCK8 kit): 38.8 ± 4.5 µM
IC50 ([3]; Table 3): 38.8 ± 4.5 µM
